Source: US11407811B2, “Fusion protein, preparation method therefor and use thereof” (JIANGSU RONGTAI BIOTECH CO., LTD., priority 2017, dated 2022)
Some results were stated once for a whole list of compounds, not compound by compound.

Assays:
Format in all cases: cell-based
[1] = system: gastric cancer cell MGC-803; test: MTT assay, proliferation of gastric cancer cell MGC-803; details: dose 32 μg/mL; listed as fusion protein II
Method: (§1) The MTT assay was used to detect the inhibitory effect of the integrin blocker fusion protein obtained in Example 1 on the proliferation of various tumor cells, including melanoma cell B16F10, gastric cancer cell MGC-803, lung cancer cell A549, liver cancer cell Hep-G2, breast cancer cell MDA-MB-231, colon cancer cell HCT-116, human glioma U87, and cervical cancer cell Hela.
(§2) The tumor cells were cultured in a 5% CO2 incubator at 37° C. to a density of 90% or more, and collected by trypsinization. The cells were resuspended in the culture liquid and counted under a microscope. The cell concentration was adjusted to 3.0×10^4 cells/mL. The cell suspension was inoculated into a 96-well plate at 100 μL per well and cultured overnight in a 5% CO2 incubator at 37° C. […] After the cells were fully adhered, each dilution was added to a 96-well plate at 100 μL per well, respectively. […] 20 μL of 5 mg/mL MTT was added to each well of a 96-well plate, and incubation was continued for 4 hours. The medium was aspirated and 100 μL of DMSO per well were added to dissolve. The absorbance was measured at 570 nm with a microplate reader with a reference wavelength of 630 nm, and the proliferation inhibition (PI) was calculated. The formula is as follows: […]
(§3) The test was repeated 5 times independently. The results obtained from the test were calculated as mean±SD, and statistical t-test was performed. […]

[2] = system: breast cancer cell MDA-MB-231; test: MTT assay, proliferation of breast cancer cell MDA-MB-231; details: dose 256 μg/mL; listed as protein II
Method: as §1, §2, §3

[3] = system: cervical cancer cell Hela; test: MTT assay, proliferation of cervical cancer cell Hela; details: dose 64 μg/mL; listed as fusion protein II
Method: as §1, §2, §3

human glioma U87 = test: MTT assay, proliferation of human glioma U87; details: dose 64 μg/mL; listed as fusion protein II
Method: as §1, §2, §3

[4] = system: human retinal vascular endothelial cell (HRCEC); test: MTT assay, proliferation of human retinal vascular endothelial cell (HRCEC); details: concentration of 64 μg/mL
Method: The activity of the integrin blocker polypeptide to inhibit proliferation of human retinal vascular endothelial cells was examined by MTT assay. HRCEC cells were cultured in a 5% CO2 incubator at 37° C. to a density of 90% or more, and then collected by trypsinization. The cells were resuspended in the culture liquid and counted under a microscope. The cell concentration was adjusted to 3.0×10^4 cells/mL. The cell suspension was inoculated into a 96-well plate at 100 μL per well and cultured in a 5% CO2 incubator at 37° C. overnight. […] After the cells were fully adhered, each dilution was added to a 96-well plate at 100 μL per well, respectively. […] 20 μL of 5 mg/mL MTT was added to each well of a 96-well plate, and incubation was continued for 4 hours. The medium was aspirated and 100 μL of DMSO was added per well for dissolution. The absorbance was measured at 570 nm with a microplate reader with a reference wavelength of 630 nm, and the proliferation inhibition (PI) was calculated. The formula was as follows: […]
where Ntest is the OD value of the test group and Ncontrol is the OD value of the blank control group.
The test was repeated 5 times independently. The results obtained from the test were calculated as mean±SD, and statistical t-test was performed. P<0.05 was considered as significant difference, and P<0.01 was considered as extremely significant difference.

[5] = system: melanoma cell line B16F10; test: MTT assay, proliferation of melanoma cell B16F10
Method: as §1, §2, §3

lung cancer cell A549 = test: MTT assay, proliferation of lung cancer cell A549; details: dose 32 μg/mL; listed as fusion protein II
Method: as §1, §2, §3

[6] = system: human umbilical vein endothelial cells (HUVEC); test: Three-dimensional transwell assay, migration of HUVEC; details: dose 2 μg/mL; listed as protein II
Method: Human umbilical vein endothelial cells (HUVECs) were cultured with endothelial cell culture fluid containing 5% fetal bovine serum and 1×ECGS in a 5% CO2 incubator at 37° C., to a confluence of 90% or more, and then inhibitory effects of fusion protein I, protein II, protein III, protein IV, and protein V on migration of endothelial cells were detected by transwell assay, in which only endothelial cells HUVEC of passage 2 to 8 were used, and the specific operation was as follows.
(1) 10 mg/mL Matrigel was diluted with a DMEM medium at a ratio of 1:4, coated on a transwell chamber membrane, and air-dried at room temperature.
(2) HUVEC cells cultured to logarithmic phase were digested with 0.2% EDTA, collected, washed twice with PBS, followed by resuspended in an endothelial cell culture liquid containing 0.1% BSA, counted under a microscope, and the cell concentration was adjusted to 1×10^5 cells/mL;
(3) Test solutions for each group were formulated and diluted to 100 μL with a cell culture liquid containing 0.1% BSA;
Groups were divided as follows:
Blank control group: a cell culture liquid containing no drug; […]
(5) The culture liquid in the well was discarded. […] The migration inhibition (MI) was calculated according to the formula: […]
The test was repeated 3 times independently. The results obtained from the test were calculated as mean±SD, and statistical t-test was performed. […]

[7] = system: colon cancer cells HCT-116; test: MTT assay, proliferation of colon cancer cell HCT-116; details: dose 128 μg/mL; listed as protein II
Method: as §1, §2, §3

B1: Protein II: IgG2-Fc linked to antiangiogenesis polypeptide EDSM-Y via a flexible linker; SEQ ID NO: 17 (protein)
chain: ERKCCVECPPCPAPPVAGPSVFLFPPKPKDTLMISRTPEVTCVVVDVSHEDPEVQFNWYVDGVEVHNAKTKPREEQFNSTFRVVSVLTVVHQDWLNGKEYKCKVSNKGLPAPIEKTISKTKGQPREPQVYTLPPSREEMTKNQVSLTCLVKGFYPSDISVEWESNGQPENNYKTTPPMLDSDGSFFLYSKLTVDKSRWQQGNVFSCSVMHEALHNHYTQKSLSLSPGKGGGGSGGGGSGGGGSFQPVLHLVALNSPLSGGMRGIRGADFQCFQQARAVGLAGTFRAGGGGRGD
[1]
  PI (%): ≥ 50%
[2]
  PI (%): ≥ 40%
[3]
  PI (%): ≥ 40%
Human glioma U87
  PI (%): ≥ 40%
[4]
  inhibition rate of HRCEC proliferation: ≥ 50%
[5]; dose 8 μg/mL, listed as protein II
  PI (%): ≥ 40%
[5]; dose 32 μg/mL, listed as fusion protein II
  PI (%): ≥ 50%
Lung cancer cell A549
  PI (%): ≥ 50%
[6]
  MI (%): ≥ 70%
[7]
  PI (%): ≥ 40%
